Among the data in PubChem BioAssay AID2685 (National Center for Advancing Translational Sciences (NCATS), 2010) are cell number change and AC50 values, retold here.

Molecules are shown by their SMILES. The list shows a part of the results. Shown are side measurements of this screen, not its main read-out; they come without a call. Most of these compounds were active or inconclusive in the main read-out, so they are no random draw. The note in brackets gives the kind of curve behind each potency; many fits are weak.

The nature of the assay: qHTS Assay for Lipid Storage Modulators in Drosophila S3 Cells.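 On cell number change: cells counted by Cell Tracker Red CMTPX staining in the red channel.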 Conditions: BODIPY lipid droplet fluorescence, 18-24 h; for cell number change: measured here: cell count max response, cells fed with added oleic acid. The method, boiled down: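 Drosophila S3 cells loaded with oleic acid (400 uM, as added) and compounds at several concentrations; lipid droplets imaged by 488-nm laser-scanning cytometry, 500–530 nm intensity and object ratio to cell channel. Percent activity normalized to 20 uM Triacsin C.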
For orientation: Quantitative high-throughput screening tests each substance at several concentrations.

Where [1] appears, read: measured here: lipid fluorescence (Fed channel) AC50, cells fed with added oleic acid.
[2] abbreviates: measured here: cell number channel AC50, cells fed with added oleic acid.

With `CC(C)(C)C(=O)Nc1nnc(-c2ccncc2)o1`, the cell number change is -1.81%. Moreover, the AC50 (usually the concentration at which the activity in the assay is half-maximal) under setting [1] is 0.0058 µM [falling, full curve, poor fit]. Consider `COc1cc(/C=C2/SC(=S)N(CC(=O)O)C2=O)ccc1OC(=O)c1ccco1`, for which the cell number change was -89.6%. Turning to `CCN1CCN(c2cc(C)c3cc(NC(=O)CCC(=O)N4CCN(c5ccccc5OC)CC4)ccc3n2)CC1`, the cell number change came out at 27%. For the same molecule, the half-maximal activity concentration (AC50) under setting [2] is 2.06 µM [rising, partial curve]. The AC50 under setting [1] was 1.16 µM [rising, full curve]. Turning to `Cc1cc(NC(=O)c2ccc(NC(=O)C(C)C)cc2)no1`, the cell number change is -20.3%. In addition, under setting [1], the AC50 was 2.91 µM [rising, single point].

Regarding `COc1cc(CC(=O)OCC(=O)c2c[nH]c3ccccc23)cc(OC)c1OC`, the cell number change was -17.7%. In the case of `CC(C)Oc1ccc(NC(=O)Oc2ccccc2)cc1`, the cell number change stood at 5.09%. In addition, under setting [1], the AC50 was 5.8 µM [rising, partial curve, poor fit]. Take `CCOc1ccc(/C=C/C(=O)N(CC)CC(=O)Nc2ccc3c(c2)OCCO3)cc1OC`: the cell number change was 1.2%.

As to `Cc1coc2cc3oc(=O)c(CCC(=O)NCCCn4ccnc4)c(C)c3cc12`, the cell number change came out at 24.3%. Turning to `CCC1CCCCN1CCCNC(=O)Cn1cc2c(n1)-c1c(oc(C(=O)N3CCCC3)c1C)CC2` (centres undefined), the cell number change amounted to 42.5%. Also, under setting [2], the AC50 was 29.1 µM [rising, single point]. In the case of `Cc1cc(C2=NNC(=Nc3ccccc3)SC2)c(C)n1C`, the cell number change turned out to be 37.8%. Further, under setting [1], the concentration at half-maximal activity (AC50) was 4.11 µM [falling, single point]. As for `COC(=O)c1ccc(OC(=O)N2CCOCC2)cc1`, the cell number change came to 9.49%. Also, under setting [1], the AC50 was 29.1 µM [rising, single point]. On to `CCN(C(=O)COC(=O)c1oc2ccc(OC)cc2c1C)C1CCS(=O)(=O)C1` (centres undefined), for which the cell number change is -27.5%. On to `O=C(CN1C(=O)C2C3C=CC(C3)C2C1=O)NCC1COc2ccccc2O1` (centres undefined), for which the cell number change was found to be 1.66%. For the same molecule, the AC50 under setting [1] was 3.66 µM [rising, full curve]. In the case of `O=C(COC(=O)c1cccc(Br)c1)NC(=O)NC1CCCC1`, the cell number change stood at 25.3%. For `COc1cccc(N2C(=O)c3ccncc3C2=O)c1`, the cell number change was -16.9%. In addition, under setting [2], the half-maximal activity concentration (AC50) was 0.116 µM [falling, full curve, poor fit]. Regarding `COc1cccc(S(=O)(=O)NCc2ccc(C(=O)N3CCN(c4ccccc4OC)CC3)cc2)c1`, the cell number change was -14%. The AC50 under setting [1] is 29.1 µM [falling, single point]. As for `CCOC(=O)c1ccc(NC(=S)NNC(=O)COC)cc1`, the cell number change is 18.7%. The AC50 under setting [1] was 1.3 µM [falling, single point]. Consider `C/C(=N\Nc1ccc(Cl)c(Cl)c1)c1ccc(-n2ccnc2)cc1`, for which the cell number change was -4.31%. Further, under setting [1], the half-maximal activity concentration (AC50) is 0.184 µM [rising, full curve, poor fit]. Consider `COc1ccccc1CNC(=O)c1cc(C)nc2ccccc12`, for which the cell number change was -10.5%. `Cc1ccc(C(C)C)cc1OCC(=O)NC1CCCCCCC1`: the cell number change is -51.2%. Besides, under setting [2], the AC50 is 18.4 µM [falling, single point]. Also, the AC50 under setting [1] was 29.1 µM [falling, single point]. For the molecule `O=C(CCC(=O)Nc1ccc(F)cc1)N/N=C/c1cccnc1`, under setting [1], the AC50 was 0.708 µM [rising, full curve]. In the case of `COc1cc(CC(NC(C)=O)C(=O)NC2CCN(C(=O)Nc3ccccc3C)CC2)cc(OC)c1` (centres undefined), the cell number change is -3.85%. On to `Cc1ccccc1C(=O)c1cccn1CC(=O)NCc1cccc(Cl)c1`, for which the AC50 under setting [1] was 0.58 µM [rising, single point].

Consider `COc1cccc(CN(Cc2ccco2)S(=O)(=O)c2ccc(S(=O)(=O)NCc3ccccc3)cc2)c1OC`, for which the cell number change was -7.41%. For the same molecule, the AC50 under setting [1] is 29.1 µM [falling, single point]. With `CCc1nn(CCCC(=O)NC(C)c2ccccc2)c(=O)c2cc3occc3n12` (centres undefined), the cell number change came to 1.15%. The AC50 under setting [1] was 6.51 µM [rising, single point]. Regarding `OC(CNCc1ccc(F)cc1)(c1ccccc1)c1ccc(F)cc1` (centres undefined), the cell number change worked out at 22.4%. Under setting [2], the AC50 is 0.326 µM [rising, full curve]. For `Cc1nccn1CCOc1ccc(Cl)cc1`, the cell number change came to 5.57%. In addition, the AC50 under setting [1] was 29.1 µM [rising, single point]. As for `C#CCSc1nnc(CSc2nc3ccccc3s2)n1-c1ccccc1`, the cell number change worked out at 19.6%. In addition, under setting [2], the AC50 was 1.46 µM [rising, partial curve, poor fit]. Consider `O=C(NC1CC2CCCC(C1)N2C(=O)NCc1ccccc1)C1CC1` (centres undefined), for which the cell number change is 0.537%. Take `CCc1n[nH]c(=O)n1Cn1c(CC)n[nH]c1=O`: the cell number change is -91.5%. Besides, the AC50 under setting [2] was 29.1 µM [falling, single point]. In the case of `CC(Oc1ccccc1)C(=O)N(CCC1=CCCCC1)c1c(N)n(Cc2ccccc2)c(=O)[nH]c1=O` (centres undefined), the cell number change was -13.6%. Also, the AC50 under setting [1] was 29.1 µM [falling, single point]. For the molecule `Nc1c(C(=O)NCc2ccco2)nnn1CC(=O)Nc1ccccc1`, the cell number change was found to be 3.91%.

`CC1(C)N=C(C(=O)c2ccccc2)N(O)C1(C)O` (centres undefined): the cell number change was -12.4%. The AC50 under setting [1] is 0.116 µM [rising, full curve, poor fit].

As to `COc1ccc(CN(C)C(=O)Cc2ccsc2)c(OC)c1OC`, the cell number change was determined as 3.85%. Besides, the AC50 under setting [1] is 5.17 µM [falling, single point]. In the case of `O=C(CN1C(=O)c2cccc3cccc1c23)NCc1ccc2c(c1)OCO2`, the AC50 under setting [1] was 23.1 µM [falling, single point]. For `Cc1cc([N+](=O)[O-])ccc1NC(=O)c1ccc(NC(=O)C(C)C)cc1`, the cell number change is -42.1%. As to `O=C(NC(=S)Nc1ccccc1Cl)c1cncc(C#Cc2ccccc2)c1`, the cell number change worked out at 3.07%. The AC50 under setting [1] is 1.84 µM [rising, partial curve, poor fit]. On to `Cc1ccc(O)c(C(=O)c2cc(C(=O)NCCc3ccccc3)c(=O)n(CCc3ccccc3)c2)c1`, for which the cell number change was 0.403%. Further, under setting [1], the AC50 was 0.461 µM [rising, partial curve].

In the case of `O=C(NCC(=O)N1CCCCCCC1)c1ccc(Cl)cc1`, the cell number change is -23.6%. Moreover, the half-maximal activity concentration (AC50) under setting [1] was 5.17 µM [falling, partial curve]. Regarding `COc1cc(SC)ccc1C(=O)N1CC(C)OC(C)C1` (centres undefined), the cell number change was 4.21%. Under setting [1], the AC50 is 18.4 µM [falling, single point]. Consider `O=c1[nH]c2ccccc2nc1NCCN1CCOCC1`, for which the cell number change is 40.3%. Besides, under setting [2], the concentration at half-maximal activity (AC50) was 11.6 µM [rising, single point]. For `COc1ccc(C(=O)Nc2ccc(NC(=O)Cc3ccccc3)cn2)cc1`, the cell number change came to 21.6%. Besides, the AC50 under setting [1] was 4.11 µM [rising, full curve]. Turning to `CC(C)c1ccc(S(=O)(=O)N2CCN(CC(=O)c3ccc(O)c(O)c3)CC2)cc1`, the cell number change worked out at 20.3%. Under setting [1], the AC50 was 5.17 µM [rising, partial curve].
